Percent effect of library compounds

Protein sequences, listed by entry. Tags and fused reporters are not part of them. Residues count along the entry.
UniProt Q4DA54, 1-478: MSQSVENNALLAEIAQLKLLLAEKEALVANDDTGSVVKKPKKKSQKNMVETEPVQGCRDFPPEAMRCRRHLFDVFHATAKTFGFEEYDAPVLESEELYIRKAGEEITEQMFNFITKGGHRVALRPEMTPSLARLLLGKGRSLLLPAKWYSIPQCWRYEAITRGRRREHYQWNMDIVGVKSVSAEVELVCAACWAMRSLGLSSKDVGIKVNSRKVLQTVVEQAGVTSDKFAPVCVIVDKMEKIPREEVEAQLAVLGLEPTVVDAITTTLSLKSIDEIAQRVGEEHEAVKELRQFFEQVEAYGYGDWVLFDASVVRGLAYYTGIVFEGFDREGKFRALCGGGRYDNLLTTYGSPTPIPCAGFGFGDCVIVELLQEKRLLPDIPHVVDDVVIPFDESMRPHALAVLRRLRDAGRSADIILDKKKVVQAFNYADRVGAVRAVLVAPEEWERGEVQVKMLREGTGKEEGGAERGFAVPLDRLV
UniProt A4I591, 1-473: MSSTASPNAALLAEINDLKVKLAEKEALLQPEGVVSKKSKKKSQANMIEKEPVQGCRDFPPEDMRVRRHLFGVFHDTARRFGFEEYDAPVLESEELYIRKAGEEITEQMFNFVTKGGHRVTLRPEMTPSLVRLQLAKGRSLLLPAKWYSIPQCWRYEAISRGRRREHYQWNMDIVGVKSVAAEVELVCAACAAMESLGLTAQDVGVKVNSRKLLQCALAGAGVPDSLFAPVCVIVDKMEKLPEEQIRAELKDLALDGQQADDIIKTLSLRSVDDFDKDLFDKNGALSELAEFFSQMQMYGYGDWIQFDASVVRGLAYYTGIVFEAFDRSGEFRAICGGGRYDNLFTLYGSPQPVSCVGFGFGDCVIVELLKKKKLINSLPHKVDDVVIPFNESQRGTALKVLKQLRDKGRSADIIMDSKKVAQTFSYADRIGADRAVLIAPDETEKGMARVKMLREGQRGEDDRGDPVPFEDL
UniProt Q8IDJ8, 1-583: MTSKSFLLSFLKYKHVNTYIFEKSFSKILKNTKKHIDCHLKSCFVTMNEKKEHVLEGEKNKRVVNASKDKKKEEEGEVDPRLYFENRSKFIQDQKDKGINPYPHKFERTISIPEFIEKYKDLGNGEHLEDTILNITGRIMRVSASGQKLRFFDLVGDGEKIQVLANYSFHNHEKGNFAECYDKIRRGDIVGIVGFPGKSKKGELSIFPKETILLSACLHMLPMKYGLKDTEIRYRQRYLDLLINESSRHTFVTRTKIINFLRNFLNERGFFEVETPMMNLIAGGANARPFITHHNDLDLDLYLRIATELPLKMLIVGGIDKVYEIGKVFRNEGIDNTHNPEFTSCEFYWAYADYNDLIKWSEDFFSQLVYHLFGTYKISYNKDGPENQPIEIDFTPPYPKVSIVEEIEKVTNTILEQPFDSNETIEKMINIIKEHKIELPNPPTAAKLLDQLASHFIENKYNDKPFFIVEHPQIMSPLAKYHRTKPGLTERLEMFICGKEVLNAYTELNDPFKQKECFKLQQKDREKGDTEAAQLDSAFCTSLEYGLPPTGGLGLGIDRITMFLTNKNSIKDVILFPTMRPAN

TcHisRS: 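Histidine-tRNA ligase, Trypanosoma cruzi CL Brener (UniProt Q4DA54). Enzyme assay of histidyl-tRNA synthetase; the read-out is not stated. Tested at 30 µM. The record gives no direction; compounds that gave an IC50 in retests scored well above the rest, so higher reads as stronger inhibition. Of about 69,000 compounds tested this way, about 31 (0.045%) reached 50% or more in at least one test.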
LiHisRS: 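Histidine-tRNA ligase, Leishmania infantum (UniProt A4I591). Enzyme assay of histidyl-tRNA synthetase; the read-out is not stated. Concentration: 30 µM. Higher reads as stronger inhibition (inferred: compounds with an IC50 in retests scored well above the rest). The assay is labelled LdHisRS but filed under L. infantum. Of about 69,000 compounds tested this way, about 410 (0.6%) reached 50% or more in at least one test.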
PfKRS1: 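Lysine-tRNA ligase, Plasmodium falciparum 3D7 (UniProt Q8IDJ8). Enzyme assay of the cytosolic lysyl-tRNA synthetase in 384-well plates, read by luminescence. Compounds at 30 µM. Direction is inferred from only a few compounds that gave an IC50; most scored high, so higher reads as stronger inhibition. About 69,000 compounds were tested under these conditions; 0.071% (about 49) showed 50% or more at least once.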

Each number is a percent effect as filed. The controls that fix the scale are not given in the record; negative values are as filed. Compounds were drawn at random from those tested, without regard to their results.

SMILES,TcHisRS,LiHisRS,PfKRS1
CC(C(=O)N1CCCCC1)N1CCN(c2nccs2)CC1 (stereo unspecified),9.052%,6.329%,4.951%
CN(Cc1nnc(C2CC2)o1)CC1CCCN1c1cccnn1 (stereo unspecified),14.17%,26.42%,6.075%
COCCN1CCCC12CCN(c1ncccn1)CC2,5.376%,15.04%,2.402%
Cn1c(CN2CCOC[C@H]2c2nc(C(C)(C)C)co2)nc2ccccc21,2.488%,27.03%,4.904%
O=C(c1ccnnc1)N1CCC2(CC1)CC(N1CCOCC1)C2,-0.7519%,7.317%,-4.341%
Cc1cnc(CN2CCCC2c2noc(C3CC3)n2)cn1 (stereo unspecified),2.305%,3.571%,0.6608%
CCOc1ccnc(N2CCN(C(=O)c3c(CC)noc3C)CC2)n1,7.429%,10.17%,0.9077%
COc1nc(C)ccc1CNc1cc(N2CCCC2CO)ncn1 (stereo unspecified),1.729%,3.571%,-3.656%
CO[C@@H]1CC[C@H]2[C@H]1OCCN2C(=O)C1=CCCC1,2.174%,18.45%,4.708%
CCn1cc(CN2CCN(C)C3(CCC(=O)N(CC4CC4)CC3)C2)cn1 (stereo unspecified),1.02%,12.9%,5.041%
CN(c1ccc(CNc2c(Cl)cccc2C#N)cc1)S(C)(=O)=O,1.685%,17.95%,4.347%
Cn1ncc(N2CCN(Cc3ccc(S(C)(=O)=O)cc3)CC2)cc1=O,7.229%,8%,-0.1212%
COCc1nc(C(=O)N2CCCC(n3ccnc3C(C)C)C2)cs1 (stereo unspecified),1.143%,0%,0%
c1ccc(CN2CCC(NCCSc3cnn[nH]3)CC2)cc1,4.04%,14.75%,10.28%
CC(C)c1noc(Cn2ncc3ccccc3c2=O)n1,7.006%,12.68%,-1.723%
COCC1CN(Cc2ccc(OC)cc2)Cc2nn(C)cc21 (stereo unspecified),2.732%,1.961%,-7.338%
Cc1nc(CC(=O)N2CCCCC2c2ccn3ccnc3n2)cs1 (stereo unspecified),-2.703%,5.556%,3.537%
CC(C)(C)n1ncc2c1NC(=O)CSC2c1ccsc1 (stereo unspecified),0%,9.89%,0.4119%
Cc1cc(C(=O)Nc2n[nH]c(C3CC3)n2)c2c(C)noc2n1,3.125%,27.08%,-0.1895%
CC(=O)N1CCC(c2cnc(-c3c(C)n[nH]c3C)cn2)CC1,1.493%,13.68%,0.2688%
CC(C)c1cc(C(=O)N2CC[C@@H](c3ccc4c(c3)OCO4)[C@H](O)C2)[nH]n1,7.2%,9.735%,2.155%
Cc1cnc(N2CCc3ncnc(N4CCN(C)CC4)c3CC2)nc1,6.952%,12.82%,2.854%
Cc1cc(NC(=O)CN2CCn3c(nnc3-c3ccccc3)C2)no1,7.563%,0%,-3.252%
COc1cccc(CNC2CCSC2)c1OC (stereo unspecified),3.077%,6.122%,4.656%
CCOc1cc(C)nc(N2CCN(C(=O)c3cc(C)on3)CC2)n1,2.924%,16.36%,-1.503%
Cc1cc(C(=O)NCc2cc(C)oc2C)no1,8%,23.91%,-1.11%
O=C(NCc1ccco1)[C@@H]1CCO[C@@H]2CCN(CC3CC3)C[C@@H]21,5.882%,2.752%,6.368%
Cc1ccc(CNC(C)(C)c2noc(C(C)(C)C)n2)o1,6.03%,27.06%,1.021%
CCN1C(=O)CCCC12CCCN(C(=O)c1cc(C)oc1C)C2 (stereo unspecified),0.9709%,9.615%,0%
CC(C)NC(=O)N1CCc2c(CNc3ncccn3)cncc2C1,10.78%,28.57%,17.3%
Cc1cccc(CN2CCC3(CCCN(C(=O)N(C)C)C3)C2=O)n1 (stereo unspecified),5.376%,2.655%,-0.489%
NC(=O)CN(CC(N)=O)Cc1cccc(Oc2ccccc2)c1,7.389%,22.37%,10.35%
CCn1nc(C)cc1C(=O)N1C[C@@H]2C[C@@H](c3nnc(C)[nH]3)O[C@@H]2C1,5.028%,17.31%,0.8888%
O=C(CNC(=O)c1ccc(Cl)cc1)Nc1nccs1,-3.03%,17.46%,-1.294%
CC(C)(C)c1cc(CN2CC[C@@H](NC(=O)c3cccnc3)[C@H](O)C2)n[nH]1,0.813%,14.42%,2.826%
Cc1cccc(S(=O)(=O)NC(=O)CCc2cscn2)c1,5.263%,15.93%,5.149%
CCC(C)c1noc(C2CCN(C(=O)c3ccccn3)CC2)n1 (stereo unspecified),1.754%,1.77%,6.329%
O=C(NCC(=O)N1CCCC1)c1nn(-c2ccccc2F)cc1O,1.754%,3.636%,0.2636%
Cc1ccc2c(c1)OC(C)CN2C(=O)Cc1ccc(C)nc1 (stereo unspecified),6.18%,17.95%,5.115%
Cc1ccc(OCc2nc(CNCC3CN(C)CCO3)cs2)cc1 (stereo unspecified),4.571%,11.54%,-2.642%

Repeated from the top, 3 entries:

- CC(C(=O)N1CCCCC1)N1CCN(c2nccs2)CC1 (stereo unspecified) | TcHisRS: 9.052%; LiHisRS: 6.329%; PfKRS1: 4.951%
- CN(Cc1nnc(C2CC2)o1)CC1CCCN1c1cccnn1 (stereo unspecified) | TcHisRS: 14.17%; LiHisRS: 26.42%; PfKRS1: 6.075%
- COCCN1CCCC12CCN(c1ncccn1)CC2 | TcHisRS: 5.376%; LiHisRS: 15.04%; PfKRS1: 2.402%

Source: ChEMBL document CHEMBL3988442, “University of Dundee, Small-Polar-MMV Screening Library” (2021).